# From the supplement of paper PMC10689618
# Structures can show the parent of a compound that is named as a salt. The list shows a part of the results. Repeats are few or missing, and single values can be far off.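 Labelled rat cortical synaptosomes were engulfed by primary human fetal astrocytes. Engulfment equaled a red/green ratio, corrected for calcein live-cell signal and normalized to the plate median. Compounds were toxic when calcein dropped over 30%, and reduced phagocytosis when below 70% of the median above 5 µM.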
# What was measured:
# [1] = system: Human fetal astrocytes; test: loss of total cells relative to no-compound high-control median (toxicity); higher = more toxic (fewer cells); details: 24 h
# [2] = system: Human fetal astrocytes; test: synaptosome phagocytosis (pHrodo/calcein intensity ratio) relative to plate median of data wells; higher = more phagocytosis; details: 24 h
SMILES,loss of total cells ([1]; 1.39 µM) [%],loss of total cells ([1]; 2.78 µM) [%],loss of total cells ([1]; 5.56 µM) [%],loss of total cells ([1]; 11.11 µM) [%],loss of total cells ([1]; 22.22 µM) [%],synaptosome phagocytosis ([2]; 1.39 µM) [%],synaptosome phagocytosis ([2]; 2.78 µM) [%],synaptosome phagocytosis ([2]; 5.56 µM) [%],synaptosome phagocytosis ([2]; 11.11 µM) [%],synaptosome phagocytosis ([2]; 22.22 µM) [%]
O=C(O)CCC(NC(=O)c1ccccc1C(=O)O)C(=O)O [Phthalamoyl-L-glutamic acid trisodium],-3.4,-0.3,8.4,-11.1,-10.7,104,109,95,125,89.5
"Nc1ccc2c3c(cccc13)C(=O)NC2=O [4-Amino-1,8-naphthalimide]",-4.4,-1.8,-18.9,-0.4,-9.4,254,106,124,140,82.2
CC1CN(S(=O)(=O)c2cccc3cnccc23)CCN1 (stereo not given),-19.4,7.7,18.3,12.4,25.2,114,112,96.3,114,91.8
"Nc1cc(=O)[nH]c(N)n1 [2,6-Diamino-4-pyrimidinone]",-11.3,-0.9,-12.3,-18.4,-14.4,95.3,109,109,107,128
O=C(O)c1cc([N+](=O)[O-])ccc1NCCCc1ccccc1 [5-Nitro-2-(3-phenylpropylamino)benzoic acid],-23.2,-14.9,1.4,-2.9,11.2,94.1,93.3,110,95.3,132
"CC(C)NCC(O)c1ccc(O)c(O)c1 (single isomer, unassigned; (-)) [(-)-Isoproterenol hydrochloride]",-2.4,12.2,4.2,14.3,11.2,96.4,88.6,99.8,131,76.1
"O=C(O)Cc1ccc(O)c(O)c1 [3,4-Dihydroxyphenylacetic acid]",14.6,-0.9,4.9,4,4,67.7,127,122,125,133
NCCNC(=O)c1ncsc1-c1cccc(F)c1 [Ro 41-1049 hydrochloride],1.6,-6.9,-19.7,-17.2,-6.6,112,126,137,114,111
Nc1nc(OCc2ccccc2)c2nc[nH]c2n1 [O6-benzylguanine],-7.3,-0.6,-6,0.4,-3.4,127,99.2,100,128,99.6
CSC(=N)NCCC[C@H](N)C(=O)O [S-Methyl-L-thiocitrulline acetate],-21.3,-7.7,5.2,12.4,5.6,91.5,114,106,103,147
CC(=O)NCCc1ccc(O)c(O)c1 [N-Acetyldopamine monohydrate],0,-9.6,-6.9,-12.1,13.2,124,118,90.6,113,86.8
CC(C)NCC(O)c1ccc(NS(C)(=O)=O)cc1 (racemic) [(±)-Sotalol hydrochloride],-2.8,-11.7,-1.1,6.5,-10.7,104,107,97.8,92.1,93.3
CC(C)(C)c1ccc(S(=O)(=O)/C=C/C#N)cc1,-5.1,-11.4,-21.7,7.6,80.8,108,123,104,73,66.8
CCC(C)N(C)C(=O)c1cc2ccccc2c(-c2ccccc2Cl)n1 (stereo not given),-30.5,-12,-6,-10.3,3.4,86.1,97.3,89.5,103,105
Cn1cc(C2=C(c3ccc(Cl)cc3Cl)C(=O)NC2=O)c2ccccc21,-38.4,-3.2,4.2,13.3,2.8,105,105,118,105,123
O=C1Nc2ccc(I)cc2/C1=C/c1cc(Br)c(O)c(Br)c1,2.1,-17.9,3.3,6.7,32.8,96.1,82.7,83.4,58.3,67.1
CCCCCCCCCCCCCCCC(=O)OC(CC(=O)O)C[N+](C)(C)C (racemic) [Palmitoyl-DL-Carnitine chloride],-8.1,-5,-5.2,15.2,16.8,101,84.9,74.4,86.3,78.7
CCCn1c(=O)[nH]c(=O)c2[nH]cnc21 [3-n-Propylxanthine],-6.2,-4.1,-0.5,2.9,2.8,111,126,109,121,124
CN1[C@@H]2CC[C@H]1C[C@@H](OC(c1ccccc1)c1ccccc1)C2 [Benztropine mesylate],-20.6,-16.2,-23.5,-13.9,-8.6,113,123,105,104,87.1

# Single records, as listed above. Order of values: loss of total cells ([1]; 1.39 µM) [%]	loss of total cells ([1]; 2.78 µM) [%]	loss of total cells ([1]; 5.56 µM) [%]	loss of total cells ([1]; 11.11 µM) [%]	loss of total cells ([1]; 22.22 µM) [%]	synaptosome phagocytosis ([2]; 1.39 µM) [%]	synaptosome phagocytosis ([2]; 2.78 µM) [%]	synaptosome phagocytosis ([2]; 5.56 µM) [%]	synaptosome phagocytosis ([2]; 11.11 µM) [%]	synaptosome phagocytosis ([2]; 22.22 µM) [%]
# Cn1cc(C2=C(c3ccc(Cl)cc3Cl)C(=O)NC2=O)c2ccccc21 reads -38.4	-3.2	4.2	13.3	2.8	105	105	118	105	123
# Nc1nc(OCc2ccccc2)c2nc[nH]c2n1 [O6-benzylguanine] reads -7.3	-0.6	-6	0.4	-3.4	127	99.2	100	128	99.6
